These are yes or no findings as the source states them, for the method shown.
Molecular target: Smlt3024 (Stenotrophomonas maltophilia K279a) (UniProt B2FJJ5)
Test: SEC-MALS; Superdex 200 10/300 GL coupled to a Wyatt MALS detector; isolated proteins and their mixture analysed, peaks checked by SDS-PAGE; dn/dc = 0.185 mL/g; both purified

Smlt3024 (from UniProt B2FJJ5 1-440)
binding: no binding

— PMC6759196
